# Reference: publication doi:10.1101/2023.09.12.557183
# The chains behind the UniProt entries cited, without tags or fusion partners. Residues count along the entry.
# UniProt P17931: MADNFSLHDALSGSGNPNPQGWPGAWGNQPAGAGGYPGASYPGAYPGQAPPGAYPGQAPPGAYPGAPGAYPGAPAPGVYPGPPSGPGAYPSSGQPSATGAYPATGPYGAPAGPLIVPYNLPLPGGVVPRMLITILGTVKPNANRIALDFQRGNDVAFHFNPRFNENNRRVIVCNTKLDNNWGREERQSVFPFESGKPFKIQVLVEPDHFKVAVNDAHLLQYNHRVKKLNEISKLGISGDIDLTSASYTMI
# UniProt P48960, residues 21-835: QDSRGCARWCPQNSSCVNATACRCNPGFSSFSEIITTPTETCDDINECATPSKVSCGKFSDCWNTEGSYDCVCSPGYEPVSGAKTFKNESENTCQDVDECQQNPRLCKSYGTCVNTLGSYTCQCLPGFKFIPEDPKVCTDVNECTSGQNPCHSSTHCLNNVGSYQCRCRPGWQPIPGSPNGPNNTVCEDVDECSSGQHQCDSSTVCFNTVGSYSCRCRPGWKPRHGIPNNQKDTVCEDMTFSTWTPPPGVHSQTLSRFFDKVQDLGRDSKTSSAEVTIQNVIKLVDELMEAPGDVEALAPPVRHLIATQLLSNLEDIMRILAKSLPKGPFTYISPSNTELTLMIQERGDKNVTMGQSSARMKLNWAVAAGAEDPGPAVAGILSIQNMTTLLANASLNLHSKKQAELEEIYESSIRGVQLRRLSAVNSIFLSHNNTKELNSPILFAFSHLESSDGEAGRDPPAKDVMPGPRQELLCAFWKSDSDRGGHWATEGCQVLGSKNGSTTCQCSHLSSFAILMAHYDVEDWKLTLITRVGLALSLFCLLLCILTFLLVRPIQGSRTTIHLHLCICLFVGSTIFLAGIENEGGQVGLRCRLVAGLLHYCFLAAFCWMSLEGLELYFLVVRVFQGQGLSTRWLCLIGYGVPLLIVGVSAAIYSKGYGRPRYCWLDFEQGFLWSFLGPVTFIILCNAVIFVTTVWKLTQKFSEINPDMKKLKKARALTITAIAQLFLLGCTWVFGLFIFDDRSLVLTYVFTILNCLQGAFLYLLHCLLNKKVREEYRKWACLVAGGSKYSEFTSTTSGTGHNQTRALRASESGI
# UniProt P16070, residues 21-742: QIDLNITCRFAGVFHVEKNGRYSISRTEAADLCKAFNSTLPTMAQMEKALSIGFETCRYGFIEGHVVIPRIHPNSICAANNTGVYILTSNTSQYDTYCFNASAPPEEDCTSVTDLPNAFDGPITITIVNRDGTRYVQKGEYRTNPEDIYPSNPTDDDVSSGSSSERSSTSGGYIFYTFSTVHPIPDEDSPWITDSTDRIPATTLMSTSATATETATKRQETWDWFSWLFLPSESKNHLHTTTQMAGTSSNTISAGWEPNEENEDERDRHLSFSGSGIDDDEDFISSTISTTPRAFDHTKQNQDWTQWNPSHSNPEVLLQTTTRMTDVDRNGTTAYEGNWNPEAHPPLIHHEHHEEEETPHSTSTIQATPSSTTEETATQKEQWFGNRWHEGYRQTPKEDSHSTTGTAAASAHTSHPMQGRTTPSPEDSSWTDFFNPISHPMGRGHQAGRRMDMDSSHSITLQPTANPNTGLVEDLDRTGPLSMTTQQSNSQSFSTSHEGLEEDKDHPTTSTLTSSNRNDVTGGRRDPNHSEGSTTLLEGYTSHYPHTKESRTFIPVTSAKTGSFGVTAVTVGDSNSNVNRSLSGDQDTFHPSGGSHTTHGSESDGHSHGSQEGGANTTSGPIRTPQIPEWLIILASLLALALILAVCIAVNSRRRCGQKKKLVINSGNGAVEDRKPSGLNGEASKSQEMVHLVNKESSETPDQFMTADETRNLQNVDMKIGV
# UniProt P17301, residues 30-1181: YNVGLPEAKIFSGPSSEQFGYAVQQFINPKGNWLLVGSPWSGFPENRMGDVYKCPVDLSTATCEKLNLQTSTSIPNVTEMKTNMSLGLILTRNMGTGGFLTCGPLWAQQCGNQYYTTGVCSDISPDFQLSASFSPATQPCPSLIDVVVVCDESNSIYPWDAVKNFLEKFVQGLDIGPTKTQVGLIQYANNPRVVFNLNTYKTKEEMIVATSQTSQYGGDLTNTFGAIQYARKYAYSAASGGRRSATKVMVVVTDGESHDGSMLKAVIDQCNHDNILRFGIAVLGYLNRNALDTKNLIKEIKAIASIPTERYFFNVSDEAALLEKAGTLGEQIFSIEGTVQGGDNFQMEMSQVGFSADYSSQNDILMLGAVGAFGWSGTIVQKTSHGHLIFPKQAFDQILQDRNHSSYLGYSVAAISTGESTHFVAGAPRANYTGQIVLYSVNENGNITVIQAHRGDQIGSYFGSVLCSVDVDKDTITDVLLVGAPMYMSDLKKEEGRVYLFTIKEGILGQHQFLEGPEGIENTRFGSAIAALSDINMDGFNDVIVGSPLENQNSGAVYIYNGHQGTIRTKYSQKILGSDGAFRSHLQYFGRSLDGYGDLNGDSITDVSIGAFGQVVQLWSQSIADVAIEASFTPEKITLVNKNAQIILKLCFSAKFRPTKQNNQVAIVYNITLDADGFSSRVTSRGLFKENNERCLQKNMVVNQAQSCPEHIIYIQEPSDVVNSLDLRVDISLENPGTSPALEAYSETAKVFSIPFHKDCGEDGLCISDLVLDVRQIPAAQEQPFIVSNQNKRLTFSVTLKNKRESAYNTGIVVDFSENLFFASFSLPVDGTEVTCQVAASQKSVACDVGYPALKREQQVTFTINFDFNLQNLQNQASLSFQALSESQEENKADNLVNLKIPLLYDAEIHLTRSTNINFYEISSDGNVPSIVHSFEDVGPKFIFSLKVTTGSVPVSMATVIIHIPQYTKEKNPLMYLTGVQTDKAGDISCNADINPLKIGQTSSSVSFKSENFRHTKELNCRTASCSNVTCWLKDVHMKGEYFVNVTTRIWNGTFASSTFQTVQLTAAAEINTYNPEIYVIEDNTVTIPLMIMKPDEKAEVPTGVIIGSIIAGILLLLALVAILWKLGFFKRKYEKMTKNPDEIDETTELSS
# Like-named read-outs stand apart in the source and are kept apart here. These are yes or no findings as the source states them, for the method shown. Binding seen in cells or lysates may run through a third protein. These calls come from enrichment with a bait or labelling near it, and not all partners need be listed.
# Assays:
# [1] = target: C-term His-tagged Gal3 (Gal3-His) (UniProt P17931); test: affinity purification with mass spectrometry
# [2] = target: C-term His-tagged Gal3 (Gal3-His) (UniProt P17931); test: affinity purification with mass spectrometry; remark: listed apart in the source
binding [1],binding [2],Substance
binds,binds,G protein coupled receptor CD97 (from UniProt P48960 21-835)
,binds,CD44 (from UniProt P16070 21-742) (receptor)
,binds,α2 integrin (from UniProt P17301 30-1181) (receptor)
